Holding throughout (assay): two-hybrid
The target in assay [1] is PREPL p.Arg647Gln (MAPPIT bait) (human) (UniProt Q4J6C6).
Assay [2] deals with PREPL β-propeller domain alone (MAPPIT bait) (human) (UniProt Q4J6C6).
In assay [3] the target is PREPLS, wild type (MAPPIT bait) (human) (UniProt Q4J6C6).
Assay [4] deals with PREPL β-propeller domain alone (MAPPIT bait) (human) (UniProt Q4J6C6). The source holds these as a separate data set.

Protein sequences, listed by entry. Tags and fused reporters are not part of them. Lines headed by an entry give the natural chain unless they say otherwise; changes in a name come on top. Chains listed by the source or under a name are the forms on record and can include a tag or linker. Residues count along the entry.
PREPLS, wild type (MAPPIT bait) (Q4J6C6, residues 90-727): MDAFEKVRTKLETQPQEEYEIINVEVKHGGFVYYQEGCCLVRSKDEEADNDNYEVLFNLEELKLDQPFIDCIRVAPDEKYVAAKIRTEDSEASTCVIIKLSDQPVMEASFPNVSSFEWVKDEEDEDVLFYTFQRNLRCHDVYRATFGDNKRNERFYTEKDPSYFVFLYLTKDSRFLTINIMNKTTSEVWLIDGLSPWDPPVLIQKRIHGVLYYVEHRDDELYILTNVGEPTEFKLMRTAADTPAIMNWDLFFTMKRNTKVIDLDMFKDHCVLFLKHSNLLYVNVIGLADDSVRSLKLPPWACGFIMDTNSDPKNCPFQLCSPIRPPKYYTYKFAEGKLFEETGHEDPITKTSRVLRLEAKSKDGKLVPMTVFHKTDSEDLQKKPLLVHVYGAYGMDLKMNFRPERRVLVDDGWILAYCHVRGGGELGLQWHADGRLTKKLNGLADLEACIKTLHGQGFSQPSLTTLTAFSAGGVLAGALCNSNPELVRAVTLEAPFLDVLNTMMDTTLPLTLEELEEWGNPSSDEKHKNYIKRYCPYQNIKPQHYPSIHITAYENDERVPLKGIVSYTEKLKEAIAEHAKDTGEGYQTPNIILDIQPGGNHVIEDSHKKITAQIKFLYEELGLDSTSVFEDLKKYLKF
PREPL p.Arg647Gln (MAPPIT bait) (Q4J6C6, form named): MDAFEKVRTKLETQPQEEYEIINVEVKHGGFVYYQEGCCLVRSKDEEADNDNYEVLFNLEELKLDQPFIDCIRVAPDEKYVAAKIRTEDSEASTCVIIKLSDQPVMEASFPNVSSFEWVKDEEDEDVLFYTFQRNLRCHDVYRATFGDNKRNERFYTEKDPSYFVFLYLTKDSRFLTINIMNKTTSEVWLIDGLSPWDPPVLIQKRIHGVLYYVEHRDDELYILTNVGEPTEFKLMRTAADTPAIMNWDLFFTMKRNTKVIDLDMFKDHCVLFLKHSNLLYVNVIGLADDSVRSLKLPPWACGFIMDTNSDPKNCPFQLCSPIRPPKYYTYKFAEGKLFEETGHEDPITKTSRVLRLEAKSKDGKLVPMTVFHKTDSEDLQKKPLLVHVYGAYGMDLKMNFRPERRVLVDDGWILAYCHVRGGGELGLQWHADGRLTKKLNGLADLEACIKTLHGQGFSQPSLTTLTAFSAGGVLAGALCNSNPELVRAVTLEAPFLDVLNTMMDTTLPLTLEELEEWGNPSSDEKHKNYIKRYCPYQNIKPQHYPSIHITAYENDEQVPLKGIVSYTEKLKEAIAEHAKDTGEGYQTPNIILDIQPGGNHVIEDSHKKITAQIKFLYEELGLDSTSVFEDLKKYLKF
UniProt Q7Z4H4: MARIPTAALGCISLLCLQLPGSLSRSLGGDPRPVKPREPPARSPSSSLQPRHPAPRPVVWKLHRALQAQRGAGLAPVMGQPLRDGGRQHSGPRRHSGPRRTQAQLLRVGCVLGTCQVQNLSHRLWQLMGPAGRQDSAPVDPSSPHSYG
UniProt Q9BTE1: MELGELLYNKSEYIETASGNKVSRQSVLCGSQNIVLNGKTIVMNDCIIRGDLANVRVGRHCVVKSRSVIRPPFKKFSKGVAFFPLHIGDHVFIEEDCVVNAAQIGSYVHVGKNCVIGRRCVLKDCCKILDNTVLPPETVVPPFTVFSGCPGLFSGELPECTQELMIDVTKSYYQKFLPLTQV
UniProt P19404, residues 33-249: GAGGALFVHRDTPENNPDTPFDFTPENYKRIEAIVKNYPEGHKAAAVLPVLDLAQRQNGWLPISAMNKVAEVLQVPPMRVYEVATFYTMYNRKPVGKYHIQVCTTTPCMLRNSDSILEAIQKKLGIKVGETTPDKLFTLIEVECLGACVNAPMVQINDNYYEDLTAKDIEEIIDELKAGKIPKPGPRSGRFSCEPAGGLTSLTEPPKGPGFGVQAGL

Experimental findings from article doi:10.1101/2023.12.18.572145 are described below.

Like-named read-outs stand apart in the source and are kept apart here. Results are given in words; binding and its absence hold for the method and conditions named. Binding calls can cover weak binding; strength is not graded here.

As for ADM2 (from UniProt Q7Z4H4), the binding entry in assay [1] is recorded as “binds”; in assay [2], “no binding”; in assay [3], “binds”.

With DCTN5 (from UniProt Q9BTE1 1-182), the binding result in assay [2] is on record as “no binding”.

Consider NDUFV2 (from UniProt P19404 33-249), for which the binding entry in assay [2] is listed as “binds”.

Consider ARPC5L (from UniProt Q9BPX5 1-153), for which the binding result in assay [2] was “no binding”.

B1: MDM1 (protein, UniProt Q8TC05 1-714)
chain: MPVRFKGLSEYQRNFLWKKSYLSESCNSSVGRKYPWAGLRSDQLGITKEPSFISKRRVPYHDPQISKSLEWNGAISESNVVASPEPEAPETPKSQEAEQKDVTQERVHSLEASRVPKRTRSHSADSRAEGASDVENNEGVTNHTPVNENVELEHSTKVLSENVDNGLDRLLRKKAGLTVVPSYNALRNSEYQRQFVWKTSKETAPAFAANQVFHNKSQFVPPFKGNSVIHETEYKRNFKGLSPVKEPKLRNDLRENRNLETVSPERKSNKIDDRLKLEAEMELKDLHQPKRKLTPWKHQRLGKVNSEYRAKFLSPAQYLYKAGAWTHVKGNMPNQVKELREKAEFYRKRVQGTHFSRDHLNQILSDSNCCWDVSSTTSSEGTVSSNIRALDLAGDPTSHKTLQKCPSTEPEEKGNIVEEQPQKNTTEKLGVSAPTIPVRRRLAWDTENTSEDVQKQPGEKEEEDDNEEEGDRKTGKQAFMGEQEKLDVREKSKADKMKEGSDSSVSSEKGGRLPTPKLRELGGIQRTHHDLTTPAVGGAVLVSPSKMKPPAPEQRKRMTSQDCLETSKNDFTKKESRAVSLLTSPAAGIKTVDPLPLREDSEDNIHKFAEATLPVSKIPKYPTNPPGQLPSPPHVPSYWHPSRRIQGSLRDPEFQHNVGKARMNNLQLPQHEAFNDEDEDRLSEISARSAASSLRAFQTLARAKKRKENFWGKT
As for B1, the binding entry in assay [4] is “no binding”.

B2: UBL5 (protein, UniProt Q9BZL1 1-73)
chain: MIEVVCNDRLGKKVRVKCNTDDTIGDLKKLIAAQTGTRWNKIVLKKWYTIFKDHVSLGDYEIHDGMNLELYYQ
Regarding B2, in assay [4], the binding entry is “binds”.

B3: DISC1 (protein, UniProt Q9NRI5 1-854)
chain: MPGGGPQGAPAAAGGGGVSHRAGSRDCLPPAACFRRRRLARRPGYMRSSTGPGIGFLSPAVGTLFRFPGGVSGEESHHSESRARQCGLDSRGLLVRSPVSKSAAAPTVTSVRGTSAHFGIQLRGGTRLPDRLSWPCGPGSAGWQQEFAAMDSSETLDASWEAACSDGARRVRAAGSLPSAELSSNSCSPGCGPEVPPTPPGSHSAFTSSFSFIRLSLGSAGERGEAEGCPPSREAESHCQSPQEMGAKAASLDGPHEDPRCLSRPFSLLATRVSADLAQAARNSSRPERDMHSLPDMDPGSSSSLDPSLAGCGGDGSSGSGDAHSWDTLLRKWEPVLRDCLLRNRRQMEVISLRLKLQKLQEDAVENDDYDKAETLQQRLEDLEQEKISLHFQLPSRQPALSSFLGHLAAQVQAALRRGATQQASGDDTHTPLRMEPRLLEPTAQDSLHVSITRRDWLLQEKQQLQKEIEALQARMFVLEAKDQQLRREIEEQEQQLQWQGCDLTPLVGQLSLGQLQEVSKALQDTLASAGQIPFHAEPPETIRSLQERIKSLNLSLKEITTKVCMSEKFCSTLRKKVNDIETQLPALLEAKMHAISGNHFWTAKDLTEEIRSLTSEREGLEGLLSKLLVLSSRNVKKLGSVKEDYNRLRREVEHQETAYETSVKENTMKYMETLKNKLCSCKCPLLGKVWEADLEACRLLIQSLQLQEARGSLSVEDERQMDDLEGAAPPIPPRLHSEDKRKTPLKVLEEWKTHLIPSLHCAGGEQKEESYILSAELGEKCEDIGKKLLYLEDQLHTAIHSHDEDLIQSLRRELQMVKETLQAMILQLQPAKEAGEREAAASCMTAGVHEAQA
As for B3, the binding result in assay [4] is “no binding”.
